Experimental data taken from PubChem BioAssay (NCATS).
Inconclusive results, whose numbers are uncertain, are shown with a selection of clear calls. Potencies beside an inconclusive call are fits to weak or partial responses and may not hold up. The source made the active and inactive calls. Calls follow the shape of the dose curve; as a rule, active = well fitted cell-killing curve with a large enough effect; inconclusive = small, poorly fitted or top-dose-only effect, or effect the other way; inactive = no such curve, though single readings can be large or run the other way.

Assay: Quantitative High-Throughput drug screen in 47 multiple myeloma cell lines against the NCATS MIPE library collection: FR4_PLB cell viability assay (AID 1918924; also: nearly all actives have a fitted effect of over 35% in size;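 as to viability (% of DMSO control): 100% = DMSO-treated cells and 0% = wells with media only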)
Details: FR4_PLB myeloma cells viability, CellTiter-Glo ATP, 48 h; viability (% of DMSO control): at 45.8 µM (top of the series)
Method in brief: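 Inhibition of cell viability is measured here. Each line was plated at 500 cells per well, treated with MIPE 4.0 drugs, kept 48 hours at 37C, then assayed for ATP content by CellTiter-Glo luminescence.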
Potency is read from the fitted curve at half-maximal effect.

Structure (SMILES)	viability (% of DMSO control)	Potency
C[C@]12CCC(=O)C=C1CC[C@@H]1[C@H]2[C@@H](O)C[C@@]2(C)[C@H]1CC[C@]2(O)C(=O)CO	inactive: 102%	–
COc1c2occc2cc2ccc(=O)oc12	–	inconclusive: 1.32 µM [cytotoxic, partial curve, poor fit]
NS(=O)(=O)c1cc2c(cc1Cl)NC(C(Cl)Cl)NS2(=O)=O (stereo unspecified)	inactive: 119%	–
Clc1cccc(Cl)c1NC1=NCCN1	–	inconclusive: 0.0074 µM [rising, full curve, poor fit]
Cc1[nH]c(C=C2C(=O)Nc3ccc(S(=O)(=O)N(C)c4cccc(Cl)c4)cc32)c(C)c1C(=O)N1CCN(C)CC1	–	active: 26.4 µM
COc1cccc(Nc2c(C(N)=O)cnc3c(C)cc(S(=O)(=O)c4cccc(C(=O)N(C)C)c4)cc23)c1	inactive: 103% [at 23.2 µM]	–
Cn1c(NCCN(CCO)CCCc2ccc([N+](=O)[O-])cc2)cc(=O)n(C)c1=O	–	inconclusive: 37.2 µM [cytotoxic, single point]
N[C@@H](C(=O)N[C@@H]1C(=O)N2C(C(=O)O)=C(Cl)CS[C@H]12)c1ccccc1	–	inconclusive: 0.0083 µM [cytotoxic, full curve, poor fit]
N=C(N)c1ccc2cc(OC(=O)c3ccc(N=C(N)N)cc3)ccc2c1	–	inconclusive: 18.7 µM [cytotoxic, partial curve, poor fit]
COc1ccc2ccc(=O)oc2c1CC=C(C)C	–	inconclusive: 16.6 µM [cytotoxic, partial curve]
COc1cc2ncn(-c3cc(OCc4ccccc4S(C)(=O)=O)c(C#N)s3)c2cc1OC	inactive: 121%	–

2 compounds picked at random from those above:
Structure (SMILES)	viability (% of DMSO control)	Potency
Cc1[nH]c(C=C2C(=O)Nc3ccc(S(=O)(=O)N(C)c4cccc(Cl)c4)cc32)c(C)c1C(=O)N1CCN(C)CC1	–	active: 26.4 µM
COc1cccc(Nc2c(C(N)=O)cnc3c(C)cc(S(=O)(=O)c4cccc(C(=O)N(C)C)c4)cc23)c1	inactive: 103% [at 23.2 µM]	–
